No constants are given. Whether binding was seen depends on the method and setting. Binding seen in cells or lysates may run through a third protein. Some results given as binding are weak or reduced against the parent protein; the word gives no strength.

Sequences of proteins named here, by UniProt entry; tags and fusion partners are left off.
UniProt P63330: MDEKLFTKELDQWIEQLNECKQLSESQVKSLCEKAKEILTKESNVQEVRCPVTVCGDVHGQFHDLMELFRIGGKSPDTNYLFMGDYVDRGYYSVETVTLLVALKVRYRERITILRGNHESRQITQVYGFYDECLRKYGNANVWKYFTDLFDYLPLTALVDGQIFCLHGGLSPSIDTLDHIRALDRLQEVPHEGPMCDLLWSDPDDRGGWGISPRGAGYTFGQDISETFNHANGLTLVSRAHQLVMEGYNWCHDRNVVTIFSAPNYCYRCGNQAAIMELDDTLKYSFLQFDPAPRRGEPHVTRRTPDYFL

The values that follow come from patent US20120021999A1 (published 2012).

This assay addresses PP2Ac from IL-2-stimulated TS1αβ cellular extracts (mouse) (UniProt P63330). Put plainly: pull-down of biotinylated peptide on streptavidin beads from TS1αβ cell extracts, anti-PP2Ac immunoblot. In general terms: Immunoblotting shows a protein as a band on a membrane.

B1: DPT-C9 (peptide)
peptide: VKKKKIKREIKIYIETLDGILEQWARSEDL
modifications: NH2-biotinylated
In the case of B1, the binding entry is “binds”.

B2: C9 (peptide)
peptide: YIETLDGILEQWARSEDL
modifications: NH2-biotinylated
For B2, the binding result is “binds”.
